Measured values published in PubChem BioAssay AID504834 (National Center for Advancing Translational Sciences (NCATS), 2011).
Among all 320,000 compounds or so, about 22,000 (6.9%) were called active. The shares of active, inactive and inconclusive entries below differ from those in the screen. Calls come from the whole dose curve; as a rule, active = well fitted inhibition curve with a large enough effect; inconclusive = small, poorly fitted or top-dose-only effect, or another doubt; inactive = no such curve, though single readings can be large or run the other way. Where the call is inconclusive, the potency comes from a doubtful curve fit.
% is set by controls: 0 for no effect and ±100 for the full control effect; potency is the fitted concentration of half-maximal effect.

Test: Primary qHTS for delayed death inhibitors of the malarial parasite plastid, 96 hour incubation
Conditions: P. falciparum luciferase reporter growth; series mostly up to 28.7 µM; activity change, negative = inhibition: at the top concentration
Summary of the method: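 Two parasite generations (96 h, 37 C, 5% CO2) of compound exposure in infected erythrocytes (0.05% parasitemia, 2% hematocrit). Luciferase-reporter P. falciparum; decreased luminescence indicates inhibited growth, aimed at apicoplast-acting delayed death.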
In the case of `COc1ccnc(Oc2ccc(F)cc2)c1C(=O)N/C=N/OCc1ccccc1`, the “activity change, negative = inhibition” value is reported as inactive: 19.3%.
With `CCOC(=O)C1CCN(C(=O)c2cc3cc4ccc(C)cc4nc3o2)CC1` the “activity change, negative = inhibition” value was inactive: 22.9%.
In the case of `CCc1ncc(CN2CCC(C(=O)Nc3cccc(-c4cscn4)c3)CC2)cn1`, the Potency is reported as inconclusive: 14.7 µM [inhibitor, single point].
With `Clc1ccccc1-c1nnc(-c2ccc3c(c2)OCO3)o1` the Potency was inconclusive: 11.7 µM [inhibitor, single point].
In the case of `CCCCNC(=O)/C(C#N)=C/c1ccc(F)cc1F`, the “activity change, negative = inhibition” value is reported as inactive: 10.5%.
For `COCCOC(=O)c1c(NC(=O)CN2CCCc3ccccc32)sc(C(N)=O)c1C`, the Potency was active: 10.4 µM.
With `O=C(Nc1cccc([N+](=O)[O-])c1)C12CC3CC(C1)CC(n1cnc([N+](=O)[O-])n1)(C3)C2` the Potency was inconclusive: 4.65 µM [inhibitor, partial curve, poor fit].
For `Cc1cc(C)c(NC(=O)CS)c(Cl)c1`, the Potency was inconclusive: 2.33 µM [inhibitor, partial curve, poor fit].
For `O=C(Nc1ccc(N2CCN(C(=O)c3ccco3)CC2)cc1)c1ccco1`, the Potency was inconclusive: 18.5 µM [inhibitor, single point].
With `COc1ccccc1N1CCN(C(CNC(=O)C2CCCCC2)c2cccnc2)CC1` (stereo not given) the Potency was inconclusive: 13.1 µM [inhibitor, single point].
With `CCC1=Nc2cc(C(=O)N3CCC4(CC3)OCCO4)ccc2Sc2ccc(Br)cc21` the Potency was inconclusive: 1.47 µM [inhibitor, partial curve].
With `Cc1ccc(NC(=O)c2ccc(N3CCCC3=O)cc2)cc1S(=O)(=O)N1CCCCC1` the Potency was active: 0.37 µM.
For `CC1C(=O)NC(=O)C1c1ccccc1` (stereo not given), the “activity change, negative = inhibition” value was inactive: 130%.
With `COCCNC(=O)c1ccc(CS(=O)(=O)c2c(Cl)cccc2Cl)o1` the “activity change, negative = inhibition” value was inactive: 63.8%.
With `CCOCc1c(C(=O)NCc2ccccc2CN2CCCC2)oc2ccccc12` the Potency was inconclusive: 6.57 µM [inhibitor, partial curve, poor fit].
In the case of `COc1ccc(NC(=O)c2ccc3c(c2)C(=O)N(CC2CCCO2)C3=O)cc1` (stereo not given), the Potency is reported as inconclusive: 0.415 µM [inhibitor, full curve, poor fit].
In the case of `Cc1ncc(CO)c(/C=N/NC(=O)c2cccc(S(=O)(=O)N3CCCC3)c2)c1O`, the Potency is reported as inconclusive: 18.5 µM [inhibitor, single point].
With `Cc1ccc(CNC(=O)CCCc2cn(C)c3ccccc23)cc1` the Potency was inconclusive: 4.15 µM [inhibitor, partial curve].
For `O=C(CN(C(=O)c1csnn1)c1ccc(Br)cc1)NC1CCCC1`, the “activity change, negative = inhibition” value was inactive: 22.8%.
For `COc1cc(C(Nc2ccc(S(=O)(=O)NCC3CCCO3)cc2)C(=O)NC(C)(C)C)cc(OC)c1OC` (stereo not given), the Potency was inconclusive: 10.4 µM [inhibitor, partial curve].
